In paper PMC4460036 one finds binding data, which are given here for 2 substances.

Amino acid sequences for entries named in this document (tags omitted). A change or cut given only in a name is not applied to a line headed by its entry. Residues count along the entry.
UniProt Q9HCN6, residues 21-339: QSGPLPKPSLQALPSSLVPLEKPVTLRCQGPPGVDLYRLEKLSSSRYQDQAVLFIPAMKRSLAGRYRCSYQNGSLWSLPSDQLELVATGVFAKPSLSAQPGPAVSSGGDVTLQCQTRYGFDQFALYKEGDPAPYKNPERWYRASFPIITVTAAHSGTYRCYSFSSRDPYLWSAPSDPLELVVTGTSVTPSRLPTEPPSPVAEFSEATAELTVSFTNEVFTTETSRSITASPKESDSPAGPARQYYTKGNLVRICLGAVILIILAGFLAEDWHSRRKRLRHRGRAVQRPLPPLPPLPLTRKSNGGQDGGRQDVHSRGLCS
UniProt P02453: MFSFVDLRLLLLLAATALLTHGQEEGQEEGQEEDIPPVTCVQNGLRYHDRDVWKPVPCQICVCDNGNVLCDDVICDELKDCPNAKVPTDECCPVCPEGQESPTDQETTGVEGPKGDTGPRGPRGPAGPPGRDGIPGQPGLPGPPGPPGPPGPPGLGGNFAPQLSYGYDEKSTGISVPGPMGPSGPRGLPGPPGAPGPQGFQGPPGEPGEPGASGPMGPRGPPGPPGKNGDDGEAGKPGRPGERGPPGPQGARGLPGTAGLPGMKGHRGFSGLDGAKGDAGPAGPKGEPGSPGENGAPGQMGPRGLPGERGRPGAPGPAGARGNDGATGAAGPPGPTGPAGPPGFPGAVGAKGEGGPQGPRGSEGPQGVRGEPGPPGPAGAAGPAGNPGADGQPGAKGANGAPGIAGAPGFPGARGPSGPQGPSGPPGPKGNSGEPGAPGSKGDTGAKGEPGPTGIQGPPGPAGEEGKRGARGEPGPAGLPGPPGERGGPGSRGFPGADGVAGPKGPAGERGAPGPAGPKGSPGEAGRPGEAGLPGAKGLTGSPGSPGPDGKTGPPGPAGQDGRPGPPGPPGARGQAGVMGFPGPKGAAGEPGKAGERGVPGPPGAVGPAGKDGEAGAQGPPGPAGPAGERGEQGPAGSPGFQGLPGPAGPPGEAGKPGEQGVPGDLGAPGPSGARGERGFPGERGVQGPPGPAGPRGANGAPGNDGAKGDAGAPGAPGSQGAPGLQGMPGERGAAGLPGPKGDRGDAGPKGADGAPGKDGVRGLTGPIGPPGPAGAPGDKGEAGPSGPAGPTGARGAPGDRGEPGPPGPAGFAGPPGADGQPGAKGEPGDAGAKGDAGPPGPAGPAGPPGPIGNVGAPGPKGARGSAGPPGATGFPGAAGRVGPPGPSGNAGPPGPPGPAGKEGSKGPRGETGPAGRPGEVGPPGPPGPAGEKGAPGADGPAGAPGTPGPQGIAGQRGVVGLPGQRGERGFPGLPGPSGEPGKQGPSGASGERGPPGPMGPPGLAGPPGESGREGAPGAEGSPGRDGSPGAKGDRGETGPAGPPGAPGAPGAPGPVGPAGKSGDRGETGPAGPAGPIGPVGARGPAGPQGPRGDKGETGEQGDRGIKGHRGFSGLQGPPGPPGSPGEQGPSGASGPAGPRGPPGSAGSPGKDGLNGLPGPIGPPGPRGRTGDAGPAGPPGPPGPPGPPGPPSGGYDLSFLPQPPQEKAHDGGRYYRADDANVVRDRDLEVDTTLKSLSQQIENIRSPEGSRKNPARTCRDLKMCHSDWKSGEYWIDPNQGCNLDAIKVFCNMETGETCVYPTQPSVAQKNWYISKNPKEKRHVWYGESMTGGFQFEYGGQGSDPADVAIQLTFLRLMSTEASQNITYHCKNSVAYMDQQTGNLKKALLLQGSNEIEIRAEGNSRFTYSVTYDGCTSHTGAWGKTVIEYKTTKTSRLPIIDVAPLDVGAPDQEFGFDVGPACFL

In assay [1] the target is glycoprotein VI (GPVI) on human platelets (human (endogenous in platelets)) (UniProt Q9HCN6). As to the kind of experiment: flow cytometry on cells; washed human platelets (treated with PBS, 22 μM losartan or 50 μg.mL^-1 Fab 9O12; pre-stimulated or not with TRAP 20 μM) incubated with 10 μg.mL^-1 FITC-collagen for 20 min at RT, fixed; only the binder purified.
Assay [2] shares this target. Kind of assay: flow cytometry on cells; washed human platelets, with PBS or 22 μM losartan, stimulated with collagen (10 μg.mL^-1), TRAP (20 μM) or ADP (10 μM) for 20 min; GPVI dimers or oligomers read by the binding of FITC-coupled antibody 9E18. Background: Flow cytometry measures light scatter and fluorescence of single cells or particles in a stream.
For assay [3] the target is unchanged. As to the kind of experiment: proximity ligation; Duolink with 9E18 coupled to PLUS and MINUS probes (5 μg.mL^-1 each); washed platelets, with or without 22 μM losartan, on collagen-coated Lab-Tek chambers 45 min at 37°C, fixed with 4% PFA; dots if probes <40 nm apart.

These are yes or no findings as the source states them, for the method shown. For part of these data: In cells and extracts the contact can be indirect. Some results given as binding are weak or reduced against the parent protein; the word gives no strength.

On to “FITC conjugated type I collagen (from UniProt P02453 162-1217; P02465 80-1117)”, for which the binding entry in assay [1] was “binds”.

For “glycoprotein VI (GPVI) on human platelets (from UniProt Q9HCN6 21-339) (receptor)”, the binding entry in assay [2] and in assay [3] was “binds” in each case.
